Assay results as given in BigSolDB 2.1.

COc1ccc2cc([C@H](C)C(=O)O)ccc2c1
Conditions	solubility (mole fraction)
in 1,4-dioxane, 304.65 K	0.116
in 1,4-dioxane, 311.05 K	0.13
in 1,4-dioxane, 312.15 K	0.134
in 1,4-dioxane, 316.85 K	0.145
in 1,4-dioxane, 319.95 K	0.155
in 1,4-dioxane, 322.85 K	0.161
in cyclopentyl methyl ether, 310.65 K	0.037
in cyclopentyl methyl ether, 314.85 K	0.042
in cyclopentyl methyl ether, 318.35 K	0.047
in cyclopentyl methyl ether, 327.35 K	0.061
in cyclopentyl methyl ether, 333.55 K	0.075
in toluene, 307.85 K	0.006
in toluene, 315.85 K	0.008
in toluene, 319.85 K	0.01
in toluene, 323.15 K	0.012
in toluene, 332.65 K	0.019

COc1ccc2cc(C(C)C(=O)O)ccc2c1 (racemic)
Conditions	solubility (mole fraction)
in 1,4-dioxane, 312.65 K	0.105
in 1,4-dioxane, 316.45 K	0.116
in 1,4-dioxane, 318.75 K	0.122
in 1,4-dioxane, 321.05 K	0.128
in 1,4-dioxane, 322.95 K	0.132
in cyclopentyl methyl ether, 307.35 K	0.025
in cyclopentyl methyl ether, 316.05 K	0.031
in cyclopentyl methyl ether, 321.65 K	0.036
in cyclopentyl methyl ether, 324.55 K	0.04
in cyclopentyl methyl ether, 329.75 K	0.047
in toluene, 312.15 K	0.004
in toluene, 319.95 K	0.006
in toluene, 321.45 K	0.006
in toluene, 325.85 K	0.008
in toluene, 326.15 K	0.009
in toluene, 327.95 K	0.01
in toluene, 332.45 K	0.012
in toluene, 334.55 K	0.013
